Source: PMC7211019
These are yes or no findings as the source states them, for the method shown. Some entries that bind do so weakly or less than the wild type.

Amino acid sequences for entries named in this document (tags omitted). Residues count along the entry.
UniProt Q9Z340, residues 582-685: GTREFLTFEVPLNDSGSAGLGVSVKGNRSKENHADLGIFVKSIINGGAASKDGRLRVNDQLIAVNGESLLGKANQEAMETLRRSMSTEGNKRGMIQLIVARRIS

How the values were obtained:
[1] = target: Par3 PDZ3 (rat) (UniProt Q9Z340); test: crystal structure; Par3 PDZ3 (7–15 mg/ml) mixed with Par6β PBM peptide at 1:3; hanging drop, 16 °C, 2.4 M ammonium sulfate, 0.1 M citrate pH 4.0; both purified
[2] = target: recombinant Par6 PB1 (mouse) (UniProt Q9JK83); test: SEC; analytical gel filtration, Superdex 200 increase 10/300 GL, 50 mM Tris-HCl pH 8.0, 100 mM (or up to 2 M) NaCl, 1 mM DTT, 1 mM EDTA; both purified

Row | Binder | binding [1] | binding [2]
1 | LEEDGTIITL [Par6β PBM peptide] | binds | –
2 | recombinant Par6 PB1 (domain or fragment, UniProt Q9JK83 16-96) TMEVKSKFGAEFRRFSLERSKPGKFEEFYGLLQHVHKIPNVDVLVGYADIHGDLLPINNDDNYHKAVSTANPLLRIFIQKK | – | binds
